One assay addresses T1, FOS^MUT3AA-mDHFR_B.
T1 chain: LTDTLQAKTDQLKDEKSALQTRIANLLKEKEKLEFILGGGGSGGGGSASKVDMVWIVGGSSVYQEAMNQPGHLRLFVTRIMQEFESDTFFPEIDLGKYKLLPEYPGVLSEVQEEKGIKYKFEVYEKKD
In words: split-DHFR complementation, MTX selection of T cells, FACS.

The next assay concerns the target T2, FOS^WT-mDHFR_B.
T2 chain: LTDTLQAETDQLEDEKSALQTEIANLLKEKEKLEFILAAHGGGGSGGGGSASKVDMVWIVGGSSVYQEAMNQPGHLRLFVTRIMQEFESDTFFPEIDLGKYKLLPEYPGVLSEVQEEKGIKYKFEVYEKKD
The assay is described as above.

Results are given in words; binding and its absence hold for the method and conditions named. Some binding calls cover weakened binding; strength is not graded here.

B1: JUN^WT-mDHFR_A (other)
chain: RIARLEEKVKTLKAQNSELASTANMLREQVAQLKQKVMNHGGGGSGGGGSMVRPLNCIVAVSQNMGIGKNGDFPWPPLRNESKYFQRMTTTSSVEGKQNLVIMGRKTWFSIPEKNRPLKDRINIVLSRELKEPPRGAHFLAKSLDDALRLIEQPEL
For B1, the binding result in the assay with FOS^MUT3AA-mDHFR_B was “binds”.

B2: JUN^MUT3AA-mDHFR_A (other)
chain: RIARLEEEVKTLEAQNSELASTANMLEEQVAQLKQKVGGGGSGGGGSMVRPLNCIVAVSQNMGIGKNGDFPWPPLRNESKYFQRMTTTSSVEGKQNLVIMGRKTWFSIPEKNRPLKDRINIVLSRELKEPPRGAHFLAKSLDDALRLIEQPEL
Consider B2, for which the binding entry with FOS^WT-mDHFR_B is given as “binds”.

Values taken from US20220041999A1 (NEOGENE THERAPEUTICS B V, published 2022).
